Measurements from the supplement of paper PMC12823440, “Inhibitors supercharge kinase turnover through native proteolytic circuits” (Nature, 2025).
Counter-ions that a name gives are not always drawn. Some of the results follow. Hit calls seldom repeat between salt and free forms of one compound.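 Kinases were expressed as nanoluciferase fusions in K562 cells and luminescence was read every 4 h between 2 and 18 h as percent of control, DMSO set to 100% and a positive control to 0%. A time point counts as decreased when the signal drops significantly (2 sigma). The hit call is the authors' own, does not follow from the count of time points alone, and its rule is not shown.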

The chains behind the UniProt entries cited, without tags or fusion partners.
UniProt Q15303, whole entry R711C: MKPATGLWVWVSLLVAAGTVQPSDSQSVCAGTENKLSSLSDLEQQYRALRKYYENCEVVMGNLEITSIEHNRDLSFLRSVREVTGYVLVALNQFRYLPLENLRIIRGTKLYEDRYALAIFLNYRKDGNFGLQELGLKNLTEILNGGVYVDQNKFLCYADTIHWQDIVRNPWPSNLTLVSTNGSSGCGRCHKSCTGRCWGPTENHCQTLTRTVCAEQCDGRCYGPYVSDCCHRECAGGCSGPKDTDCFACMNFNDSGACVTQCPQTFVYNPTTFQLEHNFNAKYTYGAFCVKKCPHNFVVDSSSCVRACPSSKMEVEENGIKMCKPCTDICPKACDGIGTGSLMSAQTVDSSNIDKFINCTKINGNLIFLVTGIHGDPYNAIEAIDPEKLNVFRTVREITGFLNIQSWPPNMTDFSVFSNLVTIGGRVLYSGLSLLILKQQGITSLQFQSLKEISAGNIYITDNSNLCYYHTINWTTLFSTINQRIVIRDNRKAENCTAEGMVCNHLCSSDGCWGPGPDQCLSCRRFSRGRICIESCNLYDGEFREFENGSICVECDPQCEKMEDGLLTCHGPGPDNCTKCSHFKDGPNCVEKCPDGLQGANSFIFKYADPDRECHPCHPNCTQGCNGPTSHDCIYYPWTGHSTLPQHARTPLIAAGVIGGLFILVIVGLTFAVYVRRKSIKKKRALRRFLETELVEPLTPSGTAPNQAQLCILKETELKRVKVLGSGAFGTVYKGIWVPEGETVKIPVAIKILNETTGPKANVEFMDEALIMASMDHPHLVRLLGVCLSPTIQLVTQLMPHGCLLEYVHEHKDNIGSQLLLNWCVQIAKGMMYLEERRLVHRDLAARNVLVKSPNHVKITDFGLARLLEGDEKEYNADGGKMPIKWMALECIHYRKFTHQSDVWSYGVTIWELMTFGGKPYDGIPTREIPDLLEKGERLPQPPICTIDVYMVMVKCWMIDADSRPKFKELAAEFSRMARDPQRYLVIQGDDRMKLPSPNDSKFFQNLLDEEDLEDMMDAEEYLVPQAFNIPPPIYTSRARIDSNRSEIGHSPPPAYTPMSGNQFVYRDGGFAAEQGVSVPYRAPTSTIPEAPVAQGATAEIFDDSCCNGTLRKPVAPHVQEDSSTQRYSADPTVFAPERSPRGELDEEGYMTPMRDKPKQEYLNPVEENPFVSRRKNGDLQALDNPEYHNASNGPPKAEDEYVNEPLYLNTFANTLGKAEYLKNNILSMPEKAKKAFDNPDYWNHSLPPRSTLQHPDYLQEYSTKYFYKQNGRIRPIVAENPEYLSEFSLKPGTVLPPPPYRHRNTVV

What follows are molecules tested against ERBB4_R711C (clone: ERBB4_mut) (UniProt Q15303) (assay: kinase-Nluc reporter destabilization hit call (1 = scored as downregulated) (binary); higher = compound decreases kinase abundance). Conditions: 10 µM; K562; 2-18 h.

kinase-Nluc reporter destabilization hit call, inactive:
CS(=O)(=O)N1CCN(Cc2cc3nc(-c4cccc5[nH]ncc45)nc(N4CCOCC4)c3s2)CC1 [Pictilisib (dimethanesulfonate)] 0
N#CCNC(=O)c1ccc(-c2ccnc(Nc3ccc(N4CCOCC4)cc3)n2)cc1 [Momelotinib sulfate] 0
C[C@H](CCC(=O)NCCS(=O)(=O)O)[C@H]1CC[C@H]2[C@@H]3[C@@H](O)C[C@@H]4C[C@H](O)CC[C@]4(C)[C@H]3CC[C@]12C [Tauroursodeoxycholate (sodium)] 0
CN(C)C(=N)NC(=N)N [Metformin (hydrochloride)] 0
C/C=C1\C(=O)C[C@H]2[C@@H]3CCC4=CC(=O)CC[C@]4(C)[C@H]3CC[C@]12C [Guggulsterone] 0
Cn1cc(-c2cnc3ccc4ccc(CS(=O)(=O)NCc5ccccn5)cc4c(=O)c3c2)cn1 [MK-8033 (hydrochloride)] 0
C/C=C1\C(=O)C[C@H]2[C@@H]3CCC4=CC(=O)CC[C@]4(C)[C@H]3CC[C@]12C [(Z)-Guggulsterone] 0
COc1cc2c(-c3cnn4cc(N5CCC(N6CCN(C)CC6)CC5)cnc34)ccnc2cc1F 0
